Among the data in the supplement of paper PMC9938546 are HCT116-GFP viability values, retold here.

Structures can show the parent of a compound that is named as a salt. The list shows a part of the results. Part of the spread comes from offsets between plates or batches.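 HCT116-GFP, a KRAS-mutant, microsatellite-unstable human colorectal cancer line, constantly expresses green fluorescent protein; immune cells were from healthy donors. Cancer cell survival was tracked by live-cell imaging of green fluorescence, and activated immune cells by themselves reduced survival to roughly half.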

This assay has as its system HCT116-GFP. The experiment in a line: HCT116-GFP viability (GFP intensity) relative to untreated HCT116-GFP monoculture control, co-culture with activated PBMCs; higher = less cancer cell killing. As to conditions: culture: co-culture with anti-CD3/IL2 activated PBMCs 1:1; 10 µM; 72 h.
Molecule `CNS(=O)(=O)Cc1ccc2[nH]cc(CCN(C)C)c2c1` [Sumatriptan succinate] had an HCT116-GFP viability of 51.2%.

In the case of `NS(=O)(=O)c1cc2c(cc1Cl)N=CNS2(=O)=O` [Chlorothiazide], the HCT116-GFP viability is 32.7%. `CCOC(=O)[C@H](CCc1ccccc1)N[C@@H](C)C(=O)N1[C@H](C(=O)O)C[C@@H]2CCC[C@@H]21` [Ramipril]: the HCT116-GFP viability was 19.4%. For `CCOc1ccc2c(c1)C(C)=CC(C)(C)N2` [Ethoxyquin] the value was 71.9%; for `NC(=O)c1ncn([C@@H]2O[C@H](CO)[C@@H](O)[C@H]2O)n1` [Ribavirin], 21.2%. With `CC(C)COCC(CN(Cc1ccccc1)c1ccccc1)N1CCCC1` (stereo not given) [Bepridil hydrochloride], the HCT116-GFP viability was determined as 52.9%. To `NS(=O)(=O)c1cc(C(=O)O)c(NCc2ccco2)cc1Cl` [Furosemide] belongs 46.4%; to `COc1cc(C(=O)NS(=O)(=O)c2ccccc2C)ccc1Cc1cn(C)c2ccc(NC(=O)OC3CCCC3)cc12` [Zafirlukast], 50.2%. For `Cc1cc(C2CCCCC2)n(O)c(=O)c1` [Ciclopirox ethanolamine] the value was 6.7%; for `Cc1cccc(C)c1NC(=O)C1CCCCN1C` (stereo not given) [Mepivacaine hydrochloride], 61.6%. For `Cc1ncc([N+](=O)[O-])n1CC(O)CCl` (stereo not given) [Ornidazole] the value was 32%; for `CN1C(C(=O)Nc2ccccn2)=C(O)c2sccc2S1(=O)=O` [Tenoxicam], 47.4%. As to `C[C@]12CC[C@H]3C(=CCc4cc(O)ccc43)[C@@H]1CCC2=O` [Equilin], the HCT116-GFP viability is 79.8%.

On to `C=C[C@H]1CN2CC[C@H]1C[C@@H]2[C@@H](O)c1ccnc2ccc(OC)cc12` [Quinidine hydrochloride monohydrate], for which the HCT116-GFP viability is 81.5%. `CS(=O)(=O)c1ccc(C2=C(c3ccccc3)C(=O)OC2)cc1` [Rofecoxib] gave an HCT116-GFP viability of 35.9%.

Molecule `Cn1c(=O)c2[nH]cnc2n(C)c1=O` [Aminophylline] registered an HCT116-GFP viability of 65.3%. Take `Cc1[nH]c(=O)c(C#N)cc1-c1ccncc1` [Milrinone]: the HCT116-GFP viability came to 32%. To `CN(C)CCC=C1c2ccccc2CCc2ccccc21` [Amitryptiline hydrochloride] belongs 57.6%; to `Cc1ccnc2c1NC(=O)c1cccnc1N2C1CC1` [Nevirapine], 53.5%. In the case of `CCN(CC)CCOC(=O)C(c1ccccc1)C1CCCCC1` (stereo not given) [Drofenine hydrochloride], the HCT116-GFP viability amounted to 90.3%. The molecule `COCC1=C(C(=O)OC(C)OC(=O)OC(C)C)N2C(=O)[C@@H](NC(=O)/C(=N\OC)c3csc(N)n3)[C@H]2SC1` (stereo not given in full) [Cefpodoxime proxetil] returned an HCT116-GFP viability of 36.9%. For `COc1cc(Cc2cnc(N)nc2N)cc(OC)c1OC` [Trimethoprim] the value was 35.3%. The molecule `O=C(CCCN1CCC(O)(c2ccc(Br)cc2)CC1)c1ccc(F)cc1` [Bromperidol] displayed an HCT116-GFP viability of 38.2%. For `CO[C@@]1(NC(=O)Cc2cccs2)C(=O)N2C(C(=O)O)=C(COC(N)=O)CS[C@@H]21` [Cefoxitin sodium salt] the value was 78.2%; for `CC(=O)c1ccc2c(c1)N(CCCN1CCC(CCO)CC1)c1ccccc1S2` [Piperacetazine], 66.4%. As to `CCCCC(CC)CN1CN(CC(CC)CCCC)CC(C)(N)C1` (stereo not given) [Hexetidine], the HCT116-GFP viability amounted to 38.9%. To `COc1cc2c(cc1OC)C(=O)C(CC1CCN(Cc3ccccc3)CC1)C2` (stereo not given) [Donepezil hydrochloride] belongs 43.4%; to `N#CC(c1ccc(Cl)cc1)c1c(Cl)cc(-n2ncc(=O)[nH]c2=O)cc1Cl` (stereo not given) [Diclazuril], 20.7%. To `COc1cc(OC)c(C(=O)CCCN2CCCC2)c(OC)c1` [Buflomedil hydrochloride] belongs 33.8%; to `CN1CCC(=C2c3ccccc3CC(=O)c3sccc32)CC1` [Ketotifen fumarate], 57.7%. To `COc1ccccc1N1CCN(CC(O)COc2cccc3ccccc23)CC1` (stereo not given) [Naftopidil dihydrochloride] belongs 34%; to `CN1CCCC(CC2c3ccccc3Sc3ccccc32)C1` (stereo not given) [Metixene hydrochloride], 60.3%; to `CCN1C(=O)NC(c2ccccc2)C1=O` (stereo not given) [Ethotoin], 62.8%.

`CCCN(CCC)C(=O)C(CCC(=O)O)NC(=O)c1ccccc1` (stereo not given) [Proglumide] displayed an HCT116-GFP viability of 53.4%. Take `COc1ccc2c(c1)N(C[C@H](C)CN(C)C)c1ccccc1S2` [Methotrimeprazine maleat salt]: the HCT116-GFP viability stood at 81.2%. As for `CC(C)(Sc1cc(C(C)(C)C)c(O)c(C(C)(C)C)c1)Sc1cc(C(C)(C)C)c(O)c(C(C)(C)C)c1` [Probucol], the HCT116-GFP viability came to 33.3%. Regarding `Cn1ccnc1S` [Methimazole], the HCT116-GFP viability was found to be 66.9%.

The molecule `Nc1c(Br)cc(Br)cc1CN[C@H]1CC[C@H](O)CC1` [Ambroxol hydrochloride] registered an HCT116-GFP viability of 69.2%. In turn, `CN(C)CC/C=C1\c2ccccc2CSc2ccccc21` [Dosulepin hydrochloride] returned an HCT116-GFP viability of 57.7%. To `CC(C)(Oc1ccc(Cl)cc1)C(=O)O` [Clofibric acid] belongs 63%; to `Cn1c(=O)c2c(ncn2CC(=O)O)n(C)c1=O` [Acefylline], 64.6%; to `CO[C@H]1C[C@H](O[C@H]2[C@H](C)[C@@H](O[C@@H]3O[C@H](C)C[C@H](N(C)C)[C@H]3OC(C)=O)[C@@H](C)C[C@@]3(CO3)C(=O)[C@H](C)[C@@H](OC(C)=O)[C@@H](C)[C@@H](C)OC(=O)[C@@H]2C)O[C@@H](C)[C@@H]1OC(C)=O` [Troleandomycin], 66%. In turn, `COc1ccc(-c2ccc(=N)n(CCCC(=O)O)n2)cc1` [Gabazine bromide] had an HCT116-GFP viability of 42.7%. For `Cc1cc(C(=O)NNCc2ccccc2)no1` [Isocarboxazid], the HCT116-GFP viability was found to be 73.8%. For `CN1CCN(C2=Nc3cc(Cl)ccc3Nc3ccccc32)CC1` [Clozapine] the value was 65.2%. To `C[C@@H]1NC(=O)NC1=O` [Methylhydantoin-5-(L)] belongs 57.9%; to `Cc1ccc(-c2ncc(Cl)cc2-c2ccc(S(C)(=O)=O)cc2)cn1` [Etoricoxib], 38.4%; to `CC1CCc2c(N3CCC(O)CC3)c(F)cc3c(=O)c(C(=O)O)cn1c23` (stereo not given) [Nadifloxacin], 51.3%. `Cc1cc(=O)n(-c2ccccc2)n1C` [Antipyrine] displayed an HCT116-GFP viability of 52%.

The molecule `Clc1ccc(COC(Cn2ccnc2)c2ccc(Cl)cc2Cl)c(Cl)c1` (stereo not given) [Miconazole] gave an HCT116-GFP viability of 36.4%. Molecule `NC12CC3CC(CC(C3)C1)C2` [Adamantamine fumarate] yielded an HCT116-GFP viability of 34.6%. For `O=c1cc(-c2ccc(O)c(O)c2)oc2cc(O)cc(O)c12` [Luteolin] the value was 61.8%. For `CC(C)(C(=O)c1cccnc1)c1cccnc1` [Metyrapone] the value was 77.1%. For `CC(=O)N(O)CCCCCNC(=O)CCC(=O)N(O)CCCCCNC(=O)CCC(=O)N(O)CCCCCN` [Deferoxamine mesylate] the value was 19.9%; for `CC(C)(S)C(N)C(=O)O` (racemic) [D,L-Penicillamine], 74.5%. In turn, `CCN[C@H]1C[C@H](C)S(=O)(=O)c2sc(S(N)(=O)=O)cc21` [Dorzolamide hydrochloride] came in with an HCT116-GFP viability of 26.2%. In the case of `CC(C)/N=c1\cc2n(-c3ccc(Cl)cc3)c3ccccc3nc-2cc1Nc1ccc(Cl)cc1` [Clofazimine], the HCT116-GFP viability turned out to be 1.91%. To `O=C1Cc2cc(CCN3CCN(c4nsc5ccccc45)CC3)c(Cl)cc2N1` [Ziprasidone  Hydrochloride] belongs 40.8%; to `C[C@@H]1[C@H](O)[C@@H](C)/C=C/C=C/C=C/C=C/C=C/C=C/C=C/[C@H](O[C@@H]2O[C@H](C)[C@@H](O)[C@H](N)[C@@H]2O)C[C@@H]2O[C@](O)(C[C@@H](O)C[C@@H](O)[C@H](O)CC[C@@H](O)C[C@@H](O)CC(=O)O[C@H]1C)C[C@H](O)[C@H]2C(=O)O` [Amphotericin B], 42.4%; to `CO[C@@]1(NC(=O)CSCC#N)C(=O)N2C(C(=O)O)=C(CSc3nnnn3C)CS[C@@H]21` [Cefmetazole sodium salt], 77.3%. Regarding `CC(C)NC[C@H](O)COc1ccc(CC(N)=O)cc1` [(S)-(-)-Atenolol], the HCT116-GFP viability was 43%.

On to `CCOC(=O)C(C)(C)Oc1ccc(Cl)cc1` [Clofibrate], for which the HCT116-GFP viability was found to be 20.4%.

With `CN1CCc2cccc3c2[C@H]1Cc1ccc(O)c(O)c1-3` [R(-) Apomorphine hydrochloride hemihydrate], the HCT116-GFP viability was 5.15%. `CCC(NC(C)C)C(O)c1ccc(O)c(O)c1` (stereo not given) [Isoetharine mesylate salt]: the HCT116-GFP viability came out at 62.2%. To `CCC(Cc1c(I)cc(I)c(N)c1I)C(=O)O` (stereo not given) [Iopanoic acid] belongs 44.8%.
